## Screening data, single-dose tests

Sequences of proteins named here, by UniProt entry; tags and fusion partners are left off. Residues count along the entry.
UniProt Q4DA54, 1-478: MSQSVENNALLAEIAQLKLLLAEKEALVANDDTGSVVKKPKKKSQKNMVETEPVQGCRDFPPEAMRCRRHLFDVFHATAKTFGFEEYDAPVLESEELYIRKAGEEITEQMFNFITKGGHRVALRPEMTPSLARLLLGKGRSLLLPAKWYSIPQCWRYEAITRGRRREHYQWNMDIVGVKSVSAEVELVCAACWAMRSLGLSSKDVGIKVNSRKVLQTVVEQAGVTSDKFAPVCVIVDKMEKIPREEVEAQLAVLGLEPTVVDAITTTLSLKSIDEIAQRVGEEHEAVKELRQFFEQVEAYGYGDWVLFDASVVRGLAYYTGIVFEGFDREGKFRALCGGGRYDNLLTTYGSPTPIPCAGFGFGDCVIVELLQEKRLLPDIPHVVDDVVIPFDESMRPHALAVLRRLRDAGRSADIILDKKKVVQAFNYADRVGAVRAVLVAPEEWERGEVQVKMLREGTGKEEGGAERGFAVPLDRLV

Source: ChEMBL document CHEMBL3988442, “University of Dundee, Small-Polar-MMV Screening Library” (2021).

The filed quantity is “Percent Effect” (%). The record does not define 0% and 100%; most values in the screen are far below 50% and negative numbers occur (in some assays of this library far below -100). This is an unselected part of the compounds tested.

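Histidine-tRNA ligase, Trypanosoma cruzi CL Brener (UniProt Q4DA54). Enzyme assay of histidyl-tRNA synthetase; the read-out is not stated. Tested at 30 µM. The record gives no direction; compounds that gave an IC50 in retests scored well above the rest, so higher reads as stronger inhibition. Of about 69,000 compounds tested this way, about 31 (0.045%) reached 50% or more in at least one test.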

compound	Percent Effect
CNC(=O)NC(=O)CCN1CCCC1c1nc(C2CCCCC2)co1 (stereo not shown)	4.972
O=C1NC(c2ccccc2)=N[C@@]12CC[C@@H]1CN(CC3CCOCC3)C[C@@H]12	7.027
CCNC(=O)C1CCCN(C(=O)Nc2cc(C#N)ccc2OCC)C1 (stereo not shown)	3.158
Cc1ccccc1C1(CNC(=O)NC(C)c2nncn2C)CC1 (stereo not shown)	4.046
OCCN1CC2(CCN(CC3CC3)CC2)c2ccccc21	10.13
COc1cccc2c1ccn2CC(=O)Nc1nc[nH]n1	8
CN(C)C1CCC2(CCN(Cc3nccn3C)CC2)c2ccccc21 (stereo not shown)	6.667
CC(Cn1cncc1-c1cnn(C2CCCCC2)c1)N1CCCCC1 (stereo not shown)	9.848
COCCN1CC[C@]2(CN(Cc3ccccn3)C[C@H]2C)C1=O	10.13
CC(C)n1cnnc1CN(C)CC1CCOC1 (stereo not shown)	9.211
CC(C)CN1Cc2nc(N)ncc2C1=O	5.804
Cn1ccnc1CN1CCO[C@H]2C(CNC(=O)c3ccco3)CC[C@@H]21 (stereo partly shown)	6.952
O=C(c1ccc2c(c1)OCO2)N1CCC(Nc2cccnn2)CC1	3.448
CCNc1nc(C)c(C(=O)N(C)Cc2noc(C)n2)s1	-9.948
COCCc1nc(CN2CC(C)(c3ccccc3)CCC2=O)no1 (stereo not shown)	4.545
CNC(=O)c1sccc1S(=O)(=O)NC	-3.804
Cn1cc(CN2CCC3(CCC(C(=O)NCC4CC4)C3)CC2)cn1 (stereo not shown)	1.149
Cc1ocnc1C(=O)N1CCN(C(=O)CC(C)C)[C@@H]2CS(=O)(=O)C[C@@H]21	1.299
CN(C)c1ccc(CN2CCC(C(O)Cc3ccccc3)CC2)cn1 (stereo not shown)	6.122
Cc1cccc(Nc2nccnc2C2CCCN2CC(N)=O)n1 (stereo not shown)	8.889
CNc1cccc(C2CCCN(C(=O)c3ccncc3)C2)n1 (stereo not shown)	3.784
c1cc(CO[C@@H]2CC[C@H]3[C@H]2OCCN3Cc2ccoc2)ccn1	2.762
CNc1cccc(CC2COCCN(C(=O)c3cccnc3)C2)n1 (stereo not shown)	2.682
Cc1cccc(OCC(=O)N2CCN(C3CCOC3=O)CC2)c1C (stereo not shown)	5.523
O=C1CSC(c2ccncc2)c2c[nH]nc2N1 (stereo not shown)	4.142
O=C(O)c1cnc(N2CCC(c3nccn3CC3CC3)CC2)c(Cl)c1	2.4
Cc1ccc(C(=O)N2CCN(c3ncnc4nc(N)ccc34)CC2)o1	4.902
O=C1CCCc2[nH]c(=O)c(C(=O)N(Cc3ccsc3)C3CC3)cc21	9.038
Fc1ccc(N2CCCN(Cc3ccc(-c4cc[nH]n4)o3)CC2)cc1	5.682
CC(C)c1cc(N2CCC(CCC(=O)NC3CC3)CC2)n2nccc2n1	2.479
Cc1cc(C(=O)N2CCc3nnc(N)cc3C2)c(C)n1-c1cccnc1	11.65
c1ccc(SCCN2CCN(CCn3cncn3)CC2)cc1	2.128
Cc1cccc(CN2C[C@@H]3CN(C(=O)c4cnccn4)C[C@@H]3C2=O)c1	4.902
c1ccc(CN2CCc3ncnc(-c4cncnc4)c3CC2)nc1	2.956
CCS(=O)(=O)N1C[C@@H]2CN(Cc3ccco3)CCO[C@@H]2C1	-3.279
COC(=O)c1c(Cl)c(C2CC2)nc2onc(C)c12	6.931
CCCOc1ccc(C(=O)N[C@@H]2CCNC[C@H]2O)cc1Cl	-0.8333
Cc1nc(C)n(CC2CCCN2Cc2nc(N)c3ccccc3n2)n1 (stereo not shown)	3.396
CN1CCC(C(=O)N2CCCN(c3cccnn3)CC2)C1 (stereo not shown)	4.217
O=C(Cc1cccc(F)c1)N1CCc2ncnc(N3CCCC3)c2CC1	7.595
Cc1noc([C@H]2COC[C@H]3CN(C(=O)Cc4cccc(F)c4)C[C@H]32)n1	3.659
O=c1[nH]c(COc2ccc(Cl)cc2)nc2c1CCNC2	4.103
CCN1CCCC1CNC(=O)c1cc(COc2ccccc2F)[nH]n1 (stereo not shown)	11.59
O=C(c1ccc2c(c1)CCC2)N1CCn2ncnc2C1	0.8571
CC(C)Cc1cc(NC(=O)c2cc(Cl)c[nH]2)n(C)n1	4.023
Cc1ccc2[nH]nc(C(=O)NCC3CCN(Cc4c[nH]cn4)C3)c2c1 (stereo not shown)	8.889
COC[C@@H]1CC[C@H]2[C@H](CCN2S(=O)(=O)Cc2ccccc2)O1	3.448
c1ccc(CN2CCc3ncnc(C4CC4)c3CC2)nc1	8.387
Cc1nnc(CN2CCN(C)C3(CCNC(=O)CC3)C2)s1 (stereo not shown)	1.463
c1ccc(-c2nc(CN3CCCC(Cn4cncn4)C3)co2)cc1 (stereo not shown)	-7.143
O=C(N1CCC(Oc2ccncc2)C1)C1(c2ccc(F)cc2)CC1 (stereo not shown)	-1.093
Cc1occc1C(=O)N1C[C@@H]2CCCO[C@@H]2[C@H](N(C)Cc2ccco2)C1	3.509
CC(C)N1CCc2ncn(C(C)C)c2C1C(=O)NCCN1CCCC1 (stereo not shown)	1.961
CCCC(=O)Nc1cc(C(=O)NC(C)Cc2ccncc2)ccc1C (stereo not shown)	7.407
O=C(CN1CCCC(c2ccc(C(=O)O)cc2)C1)NC1CC1 (stereo not shown)	2.479
Cn1ccc(C(=O)NC2CCC23CCN(C(=O)c2ccnnc2)CC3)c1 (stereo not shown)	3.941
Cc1cnc(C(=O)N2CC(=O)N(c3ccccc3Cl)CC2C)cn1 (stereo not shown)	0
CCC1CN(CCNS(C)(=O)=O)c2ccccc2O1 (stereo not shown)	5.882
CC(=O)N1CCC(c2cnc(NC3CCOCC3)cn2)CC1	11.88
Cn1nccc1CN1CCOC(c2cccc(Nc3ccccn3)n2)C1 (stereo not shown)	-7.91
CC(c1ncc(-c2ccccc2)o1)N1CCN(C(=O)C(C)(C)C)CC1 (stereo not shown)	-2.488
CCOCc1ccccc1NC(=O)NCC(C)(O)c1ccsc1 (stereo not shown)	7.182
O=C(NN1CCCc2ccccc21)c1c[nH]c(=O)[nH]1	7.097
CS(=O)(=O)NCC(=O)NCc1cccnc1-n1cnc2ccccc21	1.02
CCc1cc(N2CCN3CCCCC3C2)n2nccc2n1 (stereo not shown)	12
Cc1cccc(C2CCCCN2C(=O)CCCS(C)(=O)=O)c1C (stereo not shown)	7.143
COCC(=O)N1C[C@H]2CN(Cc3cccc(F)c3)C(=O)[C@H]2C1	10.92
CC(C)CCN1CC2(CCN(C3CCCOC3)CC2)OC1=O (stereo not shown)	-2.513
COCC1CN(Cc2ccoc2)Cc2cn(CC3CCOCC3)nc21 (stereo not shown)	1.149
CN(C)c1ncccc1N(C)C(=O)Cn1cc(-c2ccccc2)nn1	8.287
O=C(Cn1cc(C(=O)O)ccc1=O)NCc1ccc(F)cc1Cl	4.545
Cc1cccc(-c2noc([C@@H]3C[C@@H](O)CN3CC3CCCCC3)n2)c1	-1.493
COC(=O)CC(c1ccc(OC)c(OC)c1)c1oc(C)cc(=O)c1O (stereo not shown)	10.74
CS(=O)(=O)NC(=O)CCc1cccc(OC2CCCC2)c1	3.158

Repeated from the top, 9 entries:

compound,Percent Effect
CNC(=O)NC(=O)CCN1CCCC1c1nc(C2CCCCC2)co1 (stereo not shown),4.972
O=C1NC(c2ccccc2)=N[C@@]12CC[C@@H]1CN(CC3CCOCC3)C[C@@H]12,7.027
CCNC(=O)C1CCCN(C(=O)Nc2cc(C#N)ccc2OCC)C1 (stereo not shown),3.158
Cc1ccccc1C1(CNC(=O)NC(C)c2nncn2C)CC1 (stereo not shown),4.046
OCCN1CC2(CCN(CC3CC3)CC2)c2ccccc21,10.13
COc1cccc2c1ccn2CC(=O)Nc1nc[nH]n1,8
CN(C)C1CCC2(CCN(Cc3nccn3C)CC2)c2ccccc21 (stereo not shown),6.667
CC(Cn1cncc1-c1cnn(C2CCCCC2)c1)N1CCCCC1 (stereo not shown),9.848
COCCN1CC[C@]2(CN(Cc3ccccn3)C[C@H]2C)C1=O,10.13